Source: the supplement of paper PMC12462457
Several values for one entry are separate records, joined by “and”; a condition that tells them apart may be missing. Equal entries are not always repeated. Structures can show the parent of a compound that is named as a salt. ± gives the standard deviation of the averaged measurements. This is one part of the list. This data set is noisy: repeats of one test often differ as much as different tests do.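 Cells were counted by imaging DAPI-stained nuclei, and cells lacking phalloidin-stained cytoplasm were excluded as dead. Each well's count was divided by the median count of the vehicle wells on the same plate, and values were averaged over two replicate plates.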

Tested on: OVCAR8
Assay: cell count relative to DMSO vehicle (fold change); higher = more surviving senescent cells (less killing)
Details: senescence inducer: cisplatin 10 µM 48 h, then 6 d recovery (CP senescent), exposure time 24 h

Row | Compound | cell count (compound dose 1 µM) | cell count (compound dose 5 µM)
1 | CN(CCOc1ccc(CC2SC(=O)NC2=O)cc1)c1ccccn1 (centres undefined) | 0.983 ± 0.11 | 0.778 ± 0.23
2 | Oc1c2ccccc2c2c3c(cccc13)N=N2 | 0.912 ± 0.14 | 0.484 ± 0.15
3 | CCCCC(CC)CNC(=N)NC(=N)NCCCCCCNC(=N)NC(=N)NCC(CC)CCCC (centres undefined) [Alexidine (dihydrochloride)] | 1.03 ± 0.13 | 0.722 ± 0.13
4 | Cc1[nH]c(/C=C2\C(=O)Nc3ccc(S(=O)(=O)N(C)c4cccc(Cl)c4)cc32)c(C)c1C(=O)N1CCN(C)CC1 | 1.12 ± 0.092 | 1.43 ± 0.15
5 | CCCCCCc1ccc(O)cc1O | 1.22 ± 0.013 | 1.18 ± 0.23
6 | CCCCc1nc(C)c(CC(=S)N(C)C)c(=O)n1Cc1ccc(-c2ccccc2-c2nnn[nH]2)cc1 [Fimasartan] | 0.781 ± 0.11 | 0.638 ± 0.23
7 | CC(C)=CCC[C@](C)(O)C1CC=C(C)CC1 (some centres undefined) | 0.974 ± 0.28 | 1.14 ± 0.061
8 | COc1ccc(C(=O)C2CCN(CC(=O)N(Cc3nc4c(c(=O)[nH]3)COCC4)CC3CC3)CC2)cc1 | 0.947 ± 0.16 | 0.964 ± 0.16
9 | Nc1ncnc2c1c(-c1cnc3[nH]ccc3c1)nn2C1CCCC1 | 0.435 ± 0.0099 | 0.186 ± 0.046
10 | Cn1c(=O)n(CCC(C)(C)O)c2cc(Nc3nc(Cl)ncc3Cl)ccc21 | 1.35 ± 0.16 | 0.813 ± 0.38
11 | CCCCC(=O)N(Cc1ccc(-c2ccccc2-c2nn[nH]n2)cc1)[C@H](C(=O)O)C(C)C.CCOC(=O)[C@H](C)C[C@@H](Cc1ccc(-c2ccccc2)cc1)NC(=O)CCC(=O)O [Sacubitril/Valsartan] | 0.833 ± 0.052 | 0.999 ± 0.21
12 | CC(C)=CC[C@H](O)C1=CC(=O)c2c(O)ccc(O)c2C1=O [(-)-Alkannin] | 0.968 ± 0.054 | 0.932 ± 0.15
13 | CCNC(=O)C#Cc1ccc2c(C(=Nc3ccc(CN(C)C)cc3)c3ccccc3)c(O)[nH]c2c1 | 1.25 ± 0.02 | 0.436 ± 0.02
14 | C=C1C(=O)O[C@@H]2C[C@@]3(C)CCC[C@H](C)C3=C[C@H]12 [Alantolactone] | 1.02 ± 0.034 | 0.405 ± 0.2
15 | O[C@H]1[C@H]2c3cc4c(cc3CN3CCC(=C[C@@H]1O)[C@H]23)OCO4 [Lycorine] | 0.806 ± 0.11 | 0.549 ± 0.24
16 | CCc1cccc2c1N(C)Cc1cc3c(cc1-2)OCO3 | 0.938 ± 0.05 | 0.7535 ± 0.0021
17 | CCOc1cc(C(C)(C)C)ccc1C1=N[C@@](C)(c2ccc(Cl)cc2)[C@@](C)(c2ccc(Cl)cc2)N1C(=O)N1CCN(CC(=O)N2CCOCC2)CC1 [p53 and MDM2 proteins-interaction-inhibitor (chiral)] | 1.22 ± 0.16 | 1.23 ± 0.19
18 | Cn1c(=O)cc(N2CCC[C@@H](N)C2)n(Cc2ccccc2C#N)c1=O [Alogliptin (Benzoate)] | 1.14 ± 0.095 | 0.952 ± 0.041
19 | O=c1c2cc(O)c(O)cc2oc2cc(O)c([C@@H]3O[C@H](CO)[C@@H](O)[C@H](O)[C@H]3O)c(O)c12 [Mangiferin] | 1.35 ± 0.1 | 1.13 ± 0.047
20 | N[C@@H](CC(=O)N1CCN(C(c2ccc(F)cc2)c2ccc(F)cc2)CC1)C(=O)N1Cc2ccccc2C1 | 1.12 ± 0.11 | 1.22 ± 0.03
21 | C[C@@H]1CN(C(=O)Nc2ccc(-c3nc(N4CCOCC4)c4cnn(CCCCCCC(=O)NO)c4n3)cc2)CCO1 [HDACs/mTOR Inhibitor 1] | 0.417 ± 0.026 | 0.3835 ± 0.0021
22 | CNC(=O)Nc1ccc(-c2nc(N3CC4CCC(C3)O4)c3cnn(C4CCC5(CC4)OCCO5)c3n2)cc1 | 0.673 ± 0.046 | 0.373 ± 0.079
23 | C[C@H](NP(=O)(OC[C@H]1O[C@@H](n2cc(F)c(=O)[nH]c2=O)C[C@@H]1O)Oc1cccc2ccccc12)C(=O)OCc1ccccc1 (some centres undefined) [Fosifloxuridine nafalbenamide] | 1.11 ± 0.14 | 1.11 ± 0.037
24 | O=NN(CCCl)C(=O)NC1CCCCC1 | 1.07 ± 0.12 | 0.828 ± 0.094

Retrieved one by one from above (4):
Row | Compound | cell count (compound dose 1 µM) | cell count (compound dose 5 µM)
10 | Cn1c(=O)n(CCC(C)(C)O)c2cc(Nc3nc(Cl)ncc3Cl)ccc21 | 1.35 ± 0.16 | 0.813 ± 0.38
18 | Cn1c(=O)cc(N2CCC[C@@H](N)C2)n(Cc2ccccc2C#N)c1=O [Alogliptin (Benzoate)] | 1.14 ± 0.095 | 0.952 ± 0.041
12 | CC(C)=CC[C@H](O)C1=CC(=O)c2c(O)ccc(O)c2C1=O [(-)-Alkannin] | 0.968 ± 0.054 | 0.932 ± 0.15
4 | Cc1[nH]c(/C=C2\C(=O)Nc3ccc(S(=O)(=O)N(C)c4cccc(Cl)c4)cc32)c(C)c1C(=O)N1CCN(C)CC1 | 1.12 ± 0.092 | 1.43 ± 0.15

Going on with the list:

Row | Compound | cell count (compound dose 1 µM) | cell count (compound dose 5 µM)
25 | COc1ccc([C@H]2CNC(=O)C2)cc1OC1CCCC1 [(S)-(+)-Rolipram] | 1.13 ± 0.15 | 0.942 ± 0.044
26 | O=C1CC[C@H](NC(=O)Cc2ccccc2)C(=O)N1 [Antineoplaston A10] | 0.803 ± 0.064 | 0.862 ± 0.088
27 | O=C1NCCSc2c1sc1ccc(O)cc21 | 0.841 ± 0.049 | 0.794 ± 0.26
28 | COc1ccccc1-c1cc(Nc2cccc(CS(N)(=O)=O)c2)ncn1 | 0.708 ± 0.04 | 1.15 ± 0.065
29 | Cc1cc(C)cc(NC(N)=Nc2ccccc2C(F)(F)F)c1 | 0.877 ± 0.088 | 0.863 ± 0.083
30 | Cc1nc(N2CCN(C)CC2)nc2c1Nc1ccccc1S2 | 1.35 ± 0.077 | 1.39 ± 0.22
31 | COc1cc(/C=C/C(=O)N2CCC=CC2=O)cc(OC)c1OC | 1.101 ± 0.0071 | 0.663 ± 0.15
32 | FC(F)(F)c1ccc(CNc2ccc(Cc3c[nH]c4ncc(Cl)cc34)cn2)cn1 [Pexidartinib] | 1.08 ± 0.081 | 1.08 ± 0.23
33 | O=C(CCCCCCC(=O)NO)NO [Suberoyl bis-hydroxamic acid] | 1.06 ± 0.033 | 1.01 ± 0.15
34 | OCCNC1CCCc2c1[nH]c1ccc(-c3ccccc3)cc21 (centres undefined) | 0.874 ± 0.046 | 0.772 ± 0.088
35 | CC(C)[C@H](CO)Nc1nc(Nc2cccc(Cl)c2)c2ncn(C(C)C)c2n1 [Purvalanol A] | 0.832 ± 0.12 | 0.945 ± 0.15
36 | COc1ccc(N(C)c2nc(C)nc3ccccc23)cc1 [Verubulin] | 0.755 ± 0.05 | 0.683 ± 0.16
37 | CNC(=O)c1ccc(-c2cnc3ncc(Cc4ccc5ncccc5c4)n3n2)cc1F [Capmatinib] | 1.29 ± 0.12 | 1.13 ± 0.24
38 | CCOC(=O)[C@H](CCc1ccccc1)N[C@@H](C)C(=O)N1[C@H](C(=O)O)C[C@@H]2CCC[C@@H]21 [Ramipril] | 1.03 ± 0.21 | 0.718 ± 0.43
39 | O=c1c(O)c(-c2ccc(O)c(O)c2)oc2cc(O)ccc12 | 0.911 ± 0.024 | 0.918 ± 0.73
40 | O=C(COc1ccc(Cl)cc1)NC1CCC(NC(=O)COc2ccc(Cl)cc2)CC1 (stereo not drawn) [ISRIB (trans-isomer)] | 1.17 ± 0.28 | 1.36 ± 0.058
41 | O=C1C2C3C=CC(C4CC34)C2C(=O)N1c1ccc(Cc2ccncc2)cc1 (centres undefined) | 0.96 ± 0.0028 | 0.791 ± 0.36
42 | COc1cc2c(cc1OC(C)C)[C@H](c1ccc(Cl)cc1)N(c1ccc(N(C)C[C@H]3CC[C@H](N4CCN(C)C(=O)C4)CC3)cc1)C(=O)C2 | 1.31 ± 0.37 | 0.926 ± 0.096
43 | CCc1cc2c(=O)c(-c3nc4ccccc4s3)coc2c(CN2CCCCC2)c1O | 1.06 ± 0.28 | 1.09 ± 0.23
44 | Cc1cc(C2CCCCC2)n(O)c(=O)c1 | 1.05 ± 0.075 | 1.28 ± 0.26
45 | C[C@H]1[C@H](C)CC[C@]2(C(=O)O)CC[C@]3(C)C(=CC[C@@H]4[C@@]5(C)CCC(=O)C(C)(C)[C@@H]5CC[C@]43C)[C@H]12 [Ursonic acid] | 1.1 ± 0.06 | 1.08 ± 0.27
46 | CCn1c(=O)c(-c2cc(NC(=O)Nc3ccccc3)c(F)cc2Br)cc2cnc(NC)cc21 [Ripretinib] | 1.3 | 1 ± 0.26
47 | CCOc1cc([C@@H](CS(C)(=O)=O)N2C(=O)c3cccc(NC(C)=O)c3C2=O)ccc1OC [Apremilast] | 1.21 ± 0.02 | 0.851 ± 0.49
48 | Cc1onc(C(=O)N2CCN(C(c3ccc(Cl)cc3)c3ccc(Cl)cc3)CC2)c1[N+](=O)[O-] | 0.0425 ± 0.0078 | 0.058 ± 0.0057

Row | Compound | cell count (compound dose 1 µM) | cell count (compound dose 5 µM)
49 | Nc1ccccc1NC(=O)c1ccc(CNC(=O)OCc2cccnc2)cc1 [Entinostat (MS-275)] | 1.14 ± 0.17 | 0.71 ± 0.11
50 | CCCCC1=NC2(CCCC2)C(=O)N1Cc1ccc(-c2ccccc2-c2nnn[nH]2)cc1 | 1.3 ± 0.42 | 1.17 ± 0.017
51 | CN(C)CC[C@H](CSc1ccccc1)Nc1ccc(S(=O)(=O)NC(=O)c2ccc(N3CCN(Cc4ccccc4-c4ccc(Cl)cc4)CC3)cc2)cc1[N+](=O)[O-] | 0.435 ± 0.12 | 0.267 ± 0.072
52 | O=[N+]([O-])c1ccc2c(c1)S(=O)(=O)C=C2 [Stattic] | 1.14 ± 0.093 | 0.587 ± 0.022
53 | CCNC(=O)CC[C@H](N)C(=O)O | 0.977 ± 0.085 | 0.715 ± 0.018
54 | Nc1ncn([C@H]2C[C@H](O)[C@@H](CO)O2)c(=O)n1 [Decitabine] | 0.954 ± 0.074 | 1.08 ± 0.088
55 | O=C(NOCCO)c1ccc2cncn2c1Nc1ccc(I)cc1F | 1.02 ± 0.03 | 0.852 ± 0.21
56 | CC(=O)Nc1ccc(NC(=S)NC(=O)c2ccc(C(C)(C)C)cc2)cc1 [Tenovin-1] | 1.16 ± 0.03 | 1.23 ± 0.21
57 | O=c1cc(-c2ccc(O)c(O)c2)oc2cc(O)cc(O)c12 [Luteolin] | 0.75 ± 0.33 | 0.686 ± 0.19
58 | CC(C)N(CCCNC(=O)Nc1ccc(C(C)(C)C)cc1)C[C@H]1O[C@@H](n2ccc3c(N)ncnc32)[C@H](O)[C@@H]1O | 0.887 ± 0.1 | 0.727 ± 0.039
59 | O=C1C=C2CC3(O)COc4c(ccc(O)c4O)C3=C2C=C1O (centres undefined) [Hematein] | 1.17 ± 0.062 | 1.16 ± 0.025
60 | Cc1cc(Nc2ccc(NC(=O)c3ccc(Nc4ccnc5ccccc45)cc3)cc2)nc(N)n1 | 0.534 ± 0.04 | 0.162 ± 0.067
61 | CN1CCN(c2ccc(-c3ccncc3-c3cc(F)c(O)c(F)c3)cc2)CC1 | 1.03 ± 0.14 | 1.03 ± 0.12
62 | O=C1NC(=O)C(Cc2c[nH]c3c(Cl)cccc23)N1 (centres undefined) [Necroptosis-IN-1] | 1.37 ± 0.09 | 1.25 ± 0.15
63 | CC(C)(C)C[C@@H]1N[C@@H](C(=O)N[C@H]2CC[C@H](O)CC2)[C@H](c2cccc(Cl)c2F)[C@]12C(=O)Nc1cc(Cl)ccc12 | 0.741 and 1.17 | 0.476 and 0.914
64 | O=c1c2ccccc2oc2ccccc12 | 0.893 ± 0.06 | 0.591 ± 0.31
65 | CC1(C)CC[C@]2(C(=O)n3cnc(-c4ccccn4)c3)CC[C@]3(C)[C@H](C(=O)C=C4[C@@]5(C)C=C(C#N)C(=O)C(C)(C)[C@@H]5CC[C@]43C)[C@@H]2C1 | 0.286 ± 0.058 | 0.035 ± 0.018
66 | CC(C)=CC(=O)O[C@H]1Cc2cc3ccc(=O)oc3cc2OC1(C)C [Decursin] | 0.745 ± 0.0078 | 0.456 ± 0.15
67 | CCC[C@H](Nc1nc(-c2ccc(NC(=O)NCC)c(OC)c2)ncc1C)c1cccnc1 [Lexibulin] | 0.587 ± 0.0064 | 0.776 ± 0.1
68 | COc1cc2ncc(-c3ccccc3)nc2cc1OC [Tyrphostin AG 1296] | 1.05 ± 0.047 | 1.11 ± 0.12
69 | O=c1cc(N2CCNCC2)oc2c(-c3ccccc3)cccc12 | 1 ± 0.15 | 1.02 ± 0.12
70 | COc1cc(Nc2ncc(F)c(Nc3ccc4c(n3)NC(=O)C(C)(C)O4)n2)cc(OC)c1OC [R406 (free base)] | 0.944 ± 0.093 | 0.689 ± 0.095
71 | COc1cc(Nc2ncc(F)c(Nc3ccc4c(n3)NC(=O)C(C)(C)O4)n2)cc(OC)c1OC | 0.786 ± 0.057 | 0.348 ± 0.049
72 | Cn1cc(-n2cnc3c(NCc4nc5cc(Cl)c(Cl)cc5[nH]4)nc(N4CCOCC4)nc32)cn1 | 0.59 ± 0.0064 | 0.743 ± 0.019
